In the supplement of paper PMC11438910:
The other results are listed elsewhere or left out. Most of these values are background signal.

Assays:
Assay in all cases: fluorescence intensity of antibody binding to polysaccharide-coupled beads; higher = stronger binding
[1] = biological target: pneumococcal polysaccharide C-Poly-1
[2] = biological target: pneumococcal polysaccharide C-Poly-2
[3] = biological target: pneumococcal polysaccharide Pn1
[4] = biological target: pneumococcal polysaccharide Pn10A
[5] = biological target: pneumococcal polysaccharide Pn10B
[6] = biological target: pneumococcal polysaccharide Pn10C
[7] = biological target: pneumococcal polysaccharide Pn10F
[8] = biological target: pneumococcal polysaccharide Pn11A
[9] = biological target: pneumococcal polysaccharide Pn11B
[10] = biological target: pneumococcal polysaccharide Pn11C
[11] = biological target: pneumococcal polysaccharide Pn11D
[12] = biological target: pneumococcal polysaccharide Pn11F
[13] = antibody concentration 0.1 ng/mL
[14] = antibody concentration 0.534724 ng/mL
[15] = antibody concentration 2.8593 ng/mL
[16] = antibody concentration 15.2894 ng/mL
[17] = antibody concentration 81.7561 ng/mL
[18] = antibody concentration 437.17 ng/mL
[19] = antibody concentration 2337.65 ng/mL
[20] = antibody concentration 12500 ng/mL

B1: 4-127.5 (protein)
chain 1: QVQLQESGPGLVKPSETLSLTCAVSGYSISSGYGWSWIRQPPGKGLEWIGYIGGSDSSTNYNPSLKSRVTISKDTSKNQLSLKLRSVTAADTAVYYCGSRGAVAGLGGLDSWGQGLLVTVSS
chain 2: QSVLTQPPSVSGAPGQRVTISCTGSSSNIGAGYGVQWYQQLPGTAPKLLIYENNKRPSGVFDRFSGSQSGTSGSLTITGLQSEDEADYYCQSYDSSLKAVLFGGGTRLTVL
B1 showed a fluorescence intensity [1, 13] of 27 MFI, a fluorescence intensity [1, 14] of 29.5 MFI and a fluorescence intensity [1, 15] of 28.5 MFI. It also gave a fluorescence intensity [1, 16] of 27.5 MFI, a fluorescence intensity [1, 17] of 26.2 MFI and a fluorescence intensity [1, 18] of 29 MFI. The fluorescence intensity [1, 19] was 37.5 MFI, the fluorescence intensity [1, 20] was 260 MFI and the fluorescence intensity [2, 13] was 21 MFI. The fluorescence intensity [2, 14] was 22 MFI, the fluorescence intensity [2, 15] was 21 MFI and the fluorescence intensity [2, 16] was 21.5 MFI. It also gave a fluorescence intensity [2, 17] of 19.5 MFI, a fluorescence intensity [2, 18] of 23 MFI and a fluorescence intensity [2, 19] of 33 MFI. It also gave a fluorescence intensity [2, 20] of 198 MFI, a fluorescence intensity [3, 13] of 15 MFI and a fluorescence intensity [3, 14] of 14.8 MFI. For the same binder, the fluorescence intensity [3, 15] was 15 MFI, the fluorescence intensity [3, 16] was 15 MFI and the fluorescence intensity [3, 17] was 13.5 MFI. It also gave a fluorescence intensity [3, 18] of 14.5 MFI, a fluorescence intensity [3, 19] of 18.2 MFI and a fluorescence intensity [3, 20] of 33.5 MFI. For the same binder, the fluorescence intensity [4, 13] was 27.8 MFI, the fluorescence intensity [4, 14] was 27.5 MFI and the fluorescence intensity [4, 15] was 27 MFI. It also gave a fluorescence intensity [4, 16] of 27 MFI, a fluorescence intensity [4, 17] of 26.5 MFI and a fluorescence intensity [4, 18] of 28 MFI. For the same binder, the fluorescence intensity [4, 19] was 27.5 MFI, the fluorescence intensity [4, 20] was 38.5 MFI and the fluorescence intensity [5, 13] was 24.2 MFI. It also gave a fluorescence intensity [5, 14] of 25 MFI, a fluorescence intensity [5, 15] of 24.5 MFI and a fluorescence intensity [5, 16] of 25.5 MFI. For the same binder, the fluorescence intensity [5, 17] was 26.2 MFI, the fluorescence intensity [5, 18] was 25.2 MFI and the fluorescence intensity [5, 19] was 29.8 MFI. It also gave a fluorescence intensity [5, 20] of 42.5 MFI, a fluorescence intensity [6, 13] of 16.5 MFI and a fluorescence intensity [6, 14] of 16.5 MFI. The fluorescence intensity [6, 15] was 17.5 MFI, the fluorescence intensity [6, 16] was 18 MFI and the fluorescence intensity [6, 17] was 18.8 MFI. It also gave a fluorescence intensity [6, 18] of 17.2 MFI, a fluorescence intensity [6, 19] of 20.5 MFI and a fluorescence intensity [6, 20] of 33 MFI. It also gave a fluorescence intensity [7, 13] of 20.5 MFI, a fluorescence intensity [7, 14] of 21.8 MFI and a fluorescence intensity [7, 15] of 21 MFI. The fluorescence intensity [7, 16] was 20.5 MFI, the fluorescence intensity [7, 17] was 21 MFI and the fluorescence intensity [7, 18] was 21.5 MFI. For the same binder, the fluorescence intensity [7, 19] was 23.5 MFI, the fluorescence intensity [7, 20] was 28.8 MFI and the fluorescence intensity [8, 13] was 30.5 MFI. For the same binder, the fluorescence intensity [8, 14] was 30.8 MFI, the fluorescence intensity [8, 15] was 28.5 MFI and the fluorescence intensity [8, 16] was 28.8 MFI. It also gave a fluorescence intensity [8, 17] of 29 MFI, a fluorescence intensity [8, 18] of 30 MFI and a fluorescence intensity [8, 19] of 36.5 MFI. It also gave a fluorescence intensity [8, 20] of 43.8 MFI, a fluorescence intensity [9, 13] of 27.5 MFI and a fluorescence intensity [9, 14] of 27.2 MFI. The fluorescence intensity [9, 15] was 26.2 MFI, the fluorescence intensity [9, 16] was 27 MFI and the fluorescence intensity [9, 17] was 28.8 MFI. The fluorescence intensity [9, 18] was 30.5 MFI, the fluorescence intensity [9, 19] was 34.5 MFI and the fluorescence intensity [9, 20] was 49 MFI. It also gave a fluorescence intensity [10, 13] of 23.2 MFI, a fluorescence intensity [10, 14] of 22.5 MFI and a fluorescence intensity [10, 15] of 23 MFI. For the same binder, the fluorescence intensity [10, 16] was 22.5 MFI, the fluorescence intensity [10, 17] was 22 MFI and the fluorescence intensity [10, 18] was 26.5 MFI. For the same binder, the fluorescence intensity [10, 19] was 50 MFI, the fluorescence intensity [10, 20] was 284 MFI and the fluorescence intensity [11, 13] was 23.5 MFI. The fluorescence intensity [11, 14] was 23.8 MFI, the fluorescence intensity [11, 15] was 23 MFI and the fluorescence intensity [11, 16] was 25.8 MFI. For the same binder, the fluorescence intensity [11, 17] was 22.5 MFI, the fluorescence intensity [11, 18] was 24.8 MFI and the fluorescence intensity [11, 19] was 35 MFI. For the same binder, the fluorescence intensity [11, 20] was 125 MFI, the fluorescence intensity [12, 13] was 14 MFI and the fluorescence intensity [12, 14] was 14.2 MFI.
